PubChem BioAssay AID504772 | Drosophila RNAi Screening Center | 2011

- Aim: 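Finding modifiers of Wnt signalling started by LRP6 in fly cells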 (primary screen)
- Cells: Drosophila clone 8 cells
- Reagents: long dsRNA against Drosophila genes
- Time to read-out: four days
- Challenge: pathway switched on by co-transfected constitutively active LRP6 lacking its extracellular part (DeltaNLRP6)
- Detection: 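Light from a beta-catenin-dependent firefly luciferase reporter (dTF12) relative to co-transfected Renilla luciferase, given as up or down, after four days with Wnt signalling driven by truncated active LRP6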
- Hit rule: 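a gene is picked when its silencing raises Wnt reporter signal by twofold or more and a human counterpart of the fly gene is known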
- Meaning of the calls: active = picked as conserved enhancer hit; inactive = not picked
The reagents shown are a selection, not the whole library. 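Only primary screen hits listed, as up or down without numbers; fold changes behind calls not deposited; all reporter-lowering hits marked not picked.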 Entries without a mark were called inactive. A plus sign joins genes that one reagent is predicted to hit. Not given: the amount of reagent, the dose of the treatment.

Gene | amplicon | reporter change after knockdown
SmD2 | DRSC12536 | reporter signal went up
drn | DRSC15147 | reporter signal went down
ttk | DRSC17091 | reporter signal went down
CG30460 | DRSC06560 | reporter signal went down
CG4849 | DRSC15662 | reporter signal went up
osa | DRSC17022 | reporter signal went up
CG13743 | DRSC06414 | reporter signal went up
Xrp1 | DRSC15282 | reporter signal went down
EloA | DRSC16109 | reporter signal went down
Nup93-1 | DRSC19344 | reporter signal went up
cic | DRSC16918 | reporter signal went down
Map205 | DRSC16732 | reporter signal went up
CAP | DRSC06744 | reporter signal went up
bon | DRSC16914 | reporter signal went up
zfh1 | DRSC17098 | reporter signal went down
mts | DRSC03574 | reporter signal went up
row | DRSC07076 | reporter signal went up
Antp | DRSC12490 | reporter signal went up
SKIP | DRSC14713 | reporter signal went up
mura | DRSC16484 | reporter signal went down
CG15432 | DRSC00447 | reporter signal went up (active)
psq | DRSC07668 | reporter signal went down
cad | DRSC03502 | reporter signal went down
Pvf3 | DRSC02286 | reporter signal went down
eyg | DRSC11344 | reporter signal went down
CG34376 | DRSC14695 | reporter signal went down
CG30089 | DRSC06127 | reporter signal went down
E23 | DRSC00425 | reporter signal went down
CkIIalpha | DRSC11946 | reporter signal went down
pygo | DRSC14322 | reporter signal went down
DMAP1 | DRSC06044 | reporter signal went up
enok | DRSC04096 | reporter signal went up (active)
SNRPG | DRSC20207 | reporter signal went up
CG12071 | DRSC14471 | reporter signal went down
NAT1 | DRSC06854 | reporter signal went up
wcy | DRSC20132 | reporter signal went up
CG31224 | DRSC16290 | reporter signal went up
Sf3a2 | DRSC09801 | reporter signal went up
CG12491 + CG34105 | DRSC04124 | reporter signal went up
Tpc1 | DRSC15614 | reporter signal went down
CG32772 | DRSC18052 | reporter signal went up
CG44422 | DRSC19380 | reporter signal went down
TfIIA-L | DRSC16882 | reporter signal went down
CG34354 | DRSC14558 | reporter signal went down
Rnf146 | DRSC11045 | reporter signal went up
Lmx1a | DRSC10275 | reporter signal went down
CG10019 | DRSC00279 | reporter signal went down
betaTub85D | DRSC16910 | reporter signal went up
MBD-R2 | DRSC14180 | reporter signal went up
btd | DRSC18747 | reporter signal went up
Rm62 | DRSC12365 | reporter signal went up
CG14107 | DRSC10110 | reporter signal went down
CG42686 (retired record) | DRSC15247 | reporter signal went down
Nlg3 | DRSC12574 | reporter signal went down
Mi-2 | DRSC11222 | reporter signal went up
CG9018 | DRSC08618 | reporter signal went up
Zasp52 | DRSC06269 | reporter signal went down
msopa | DRSC11895 | reporter signal went down
srp | DRSC17068 | reporter signal went down
Brr2 | DRSC10559 | reporter signal went up
apt | DRSC04671 | reporter signal went down
CG8192 | DRSC07101 | reporter signal went up
nocte | DRSC18123 | reporter signal went up
CG11983 | DRSC14458 | reporter signal went down
CG12104 | DRSC08254 | reporter signal went down
ssx | DRSC18492 | reporter signal went down
His2B:CG33870 + His2B:CG33868 + His2B:CG33882 + 21 more | DRSC03757 | reporter signal went up
PrBP | DRSC03189 | reporter signal went down
IntS1 | DRSC04343 | reporter signal went down
Ada3 | DRSC20321 | reporter signal went up
spri | DRSC17846 | reporter signal went down
Myc | DRSC18762 | reporter signal went down
Top1 | DRSC20295 | reporter signal went up
CG11030 | DRSC02120 | reporter signal went down
snf | DRSC18835 | reporter signal went up
ct | DRSC18757 | reporter signal went down
Hmgcr | DRSC16704 | reporter signal went up
CG6834 | DRSC16125 | reporter signal went down
Rip11 | DRSC20000 | reporter signal went down
gw | DRSC17135 | reporter signal went up (active)
msi | DRSC17003 | reporter signal went up
br | DRSC18744 | reporter signal went down
CkIalpha | DRSC20231 | reporter signal went up
B52 | DRSC14121 | reporter signal went down
CG31058 (retired record) | DRSC15840 | reporter signal went down
CG3078 | DRSC18531 | reporter signal went down
eIF5B | DRSC08710 | reporter signal went down
stwl | DRSC11400 | reporter signal went down
Lint-1 | DRSC19822 | reporter signal went down
CG12299 | DRSC02158 | reporter signal went up
CG10333 | DRSC02036 | reporter signal went up
CG6686 | DRSC02979 | reporter signal went up (active)
CkIIbeta | DRSC20230 | reporter signal went down
msl-2 | DRSC00829 | reporter signal went up
CG32428 | DRSC11697 | reporter signal went down
CG34159 | DRSC02885 | reporter signal went down
Dp | DRSC07402 | reporter signal went down
Fkbp39 | DRSC16667 | reporter signal went down
Drsl2 | DRSC08160 | reporter signal went down
Bx42 | DRSC17743 | reporter signal went up (active)
CG43773 | DRSC00287 | reporter signal went down
SF2 | DRSC16845 | reporter signal went down
CG43902 | DRSC17999 | reporter signal went up
CG2993 | DRSC15457 | reporter signal went up
CG14017 | DRSC02348 | reporter signal went down
e(y)3 | DRSC19450 | reporter signal went down
TfIIA-S | DRSC16883 | reporter signal went down
CG31368 | DRSC14949 | reporter signal went up
MED15 | DRSC00267 | reporter signal went down
Pc | DRSC11873 | reporter signal went up

Single entries from the list:
For “reporter change after knockdown”, CG11030 [DRSC02120] reads reporter signal went down
Entry for wcy [DRSC20132] under “reporter change after knockdown”: reporter signal went up
Value for TfIIA-L [DRSC16882] in “reporter change after knockdown”: reporter signal went down
Result for MBD-R2 [DRSC14180] in “reporter change after knockdown”: reporter signal went up
For “reporter change after knockdown”, mura [DRSC16484] is entered as reporter signal went down
Under “reporter change after knockdown”, CkIIbeta [DRSC20230] shows reporter signal went down
